AC50 data for 62 compounds are collected here from PubChem BioAssay AID493014 (National Center for Advancing Translational Sciences (NCATS), 2011).

The other results are listed elsewhere or left out. Shown are side measurements of this screen, not its main read-out; they come without a call. The list favours compounds with an active or inconclusive main result. Potencies come from curve fits of mixed quality, noted in brackets.

In general, AC50 refers to the concentration at which the activity in the assay is half-maximal.

The nature of this assay: qHTS Assay to Find Inhibitors of Chronic Active B-Cell Receptor Signaling. Particulars: ABC-DLBCL IkBa-CBG/CBR reporter, luminescence ratio (green luciferase fused to IkBa over red control in TMD8 lymphoma cells), 4 h. In short, it runs like this:
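Concentration-response series (up to 46 uM) were applied to TMD8 dual-reporter cells for 4 h at 37C with doxycycline. Green/red ratio, after filter-overlap correction, defined %Activity; red signal alone was normalised to basal cells and zero luminescence.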
On the technique in general: In qHTS, concentration-response curves come from the screen itself.

[1] abbreviates: measured here: CBR red luminescence, cell number.
Setting [2] is: measured here: IkBa-CBG green luminescence.

Turning to `COc1cccc(/C=C2\C(=O)N(c3cccc(C)c3)C(=O)c3ccccc32)c1`, the AC50 under setting [1] is 29.1 µM [falling, single point].

Turning to `COc1cc2c(cc1OC)C(C)N(C(=O)Nc1cc(C)cc(C)c1)CC2` (configuration not stated), under setting [1], the AC50 is 11.2 µM [rising, single point].

`Cc1cccc(NS(=O)(=O)c2ccc(-c3cnc(C4CC4)o3)cc2)c1`: the AC50 is, setting by setting: under setting [1], 12.6 µM [rising, single point]; under setting [2], 22.4 µM [falling, single point].

In the case of `COc1cccc(NC(=O)c2cc(C(=O)Nc3cccc(OC)c3)n(C)n2)c1`, the AC50 under setting [1] was 29.1 µM [falling, single point].

Turning to `Cc1ccsc1-c1nc(CN2C[C@@H](C)O[C@@H](C)C2)c(C)o1`, under setting [1], the AC50 is 35.5 µM [rising, single point].

Take `COC(=O)c1cccnc1Oc1ccccc1`: the AC50 under setting [1] was 2.51 µM [rising, partial curve, poor fit].

As for `CSCCC(NC(=O)c1ccc([N+](=O)[O-])cc1Cl)C(=O)OCC(=O)C12CC3CC(CC(C3)C1)C2` (configuration not stated), under setting [1], the AC50 was 20.6 µM [falling, partial curve, poor fit].

Turning to `CCc1ccc2nc(NC(=O)c3cc(C)on3)sc2c1`, the AC50 under setting [1] is 12.6 µM [falling, single point].

On to `O=C(CCSc1ccc(Cl)cc1)c1ccco1`, for which the AC50 under setting [1] was 35.5 µM [falling, single point].

Regarding `Cc1cc(C)cc(NC(=O)CCc2c(C)nn(-c3ccc(N4CCCCC4)nn3)c2C)c1`, the AC50 under setting [1] was 4.47 µM [rising, partial curve, poor fit].

In the case of `Cc1cccc(Sc2c(C=O)c3ccccc3n2C)c1`, the AC50 under setting [1] was 1.78 µM [falling, partial curve, poor fit].

For the compound `COc1ccc(-c2nc(C(N)=O)c3[nH]c(=O)n(-c4cccc(Cl)c4)c3n2)cc1OC`, the AC50 under setting [1] is 1.03 µM [falling, full curve].

`COc1ccc(N(CC(=O)Nc2cc([N+](=O)[O-])ccc2C)S(C)(=O)=O)cc1OC`: under setting [1], the AC50 was 35.5 µM [falling, single point].

As for `COc1cccc(-c2nc(CS(=O)(=O)CC(=O)NCCc3ccc(OC)cc3OC)c(C)o2)c1`, the half-maximal activity concentration (AC50) under setting [1] is 1.58 µM [rising, partial curve, poor fit].

With `Cc1ccc(NC(=O)c2noc3c2CCC3)cc1C`, the AC50 under setting [1] was 15.8 µM [falling, single point].

Turning to `Cc1c(C)c(C)c2[nH]c(-c3ccc4c(c3)OCO4)nc2c1C`, the AC50 under setting [1] is 2.51 µM [falling, full curve].

Consider `C=CCC[C@H](Cc1ccc(F)cc1)C(=O)OC[C@@H](Cc1c[nH]c2ccccc12)NC(=O)[C@@H](CC=C)CC(=O)N(CCO)Cc1ccccc1`, for which the AC50 under setting [1] was 18.4 µM [falling, single point].

`COc1ccc(OC)c(Nc2nc(C)nc3c2oc2ccccc23)c1`: the AC50 under setting [1] is 5.62 µM [falling, single point].

With `CCOC(=O)C1(CCc2ccccc2)CCN(C2Cc3ccccc3C2)CC1`, the concentration at half-maximal activity (AC50) under setting [1] is 0.501 µM [rising, partial curve, poor fit].

`CCCc1ccc(OCc2ccc(C(=O)OC)o2)c(OC)c1`: the AC50 under setting [1] is 0.411 µM [falling, full curve, poor fit].

As for `CN(C)CCNc1ncnc2c1cnn2-c1ccc(Cl)cc1`, the concentration at half-maximal activity (AC50) under setting [1] is 29.1 µM [falling, single point].

As for `Nn1c(SCC(=O)Nc2ccc(F)cc2)nnc1-c1cccnc1`, under setting [1], the AC50 is 5.8 µM [falling, full curve, poor fit].

With `CCC1=NN(C(=O)Cc2ccccc2)C(O)(c2ccncc2)C1` (configuration not stated), the AC50 under setting [1] is 7.94 µM [falling, partial curve, poor fit].

Regarding `O=C(NC1(O)C(=O)c2ccccc2C1=O)c1ccc(C(F)(F)F)cc1`, the AC50 under setting [1] is 22.4 µM [rising, single point].

`O=C(O)c1cccc2c1-c1ccccc1/C2=N\Nc1ccccc1`: the AC50 under setting [1] is 6.31 µM [falling, full curve, poor fit].

Take `O=C(/C=C/c1ccccc1)C1=C(O)C(=O)N(CCO)C1c1ccc2c(c1)OCO2` (configuration not stated): the AC50 under setting [1] was 0.501 µM [rising, full curve, poor fit].

As to `CCN1CCN(C(=O)C2CC(c3ccc(F)cc3)=NO2)CC1` (configuration not stated), under setting [1], the AC50 was 0.517 µM [rising, partial curve, poor fit].

Regarding `Cc1cccc(N2CCN(C(=O)Cn3ccc4ccccc4c3=O)CC2)c1C`, the AC50 under setting [1] was 1.84 µM [rising, full curve, poor fit].

For `Cc1ccc2nc(-c3ccc(NC(=O)COC(=O)c4ccco4)cc3)sc2c1`, the AC50 under setting [1] is 1.3 µM [rising, full curve].

As to `COC(=O)c1sc(S(=O)(=O)N2CCC(C(=O)O)CC2)c(C(=O)OC)c1C`, the AC50 under setting [1] is 6.51 µM [rising, single point].

Regarding `CCCc1nc2ccccc2c(=O)n1/N=C/c1ccc(O)cc1O`, under setting [1], the AC50 was 2.82 µM [falling, partial curve].

On to `O=C(NCc1cccnc1)C1c2ccccc2C(=O)N1Cc1ccccc1` (configuration not stated), for which the AC50 under setting [1] is 14.6 µM [rising, partial curve, poor fit].

Turning to `CCc1ccc(OCC(=O)O/N=C(\N)c2cccnc2)cc1`, the AC50 under setting [1] is 3.55 µM [rising, single point].

In the case of `Cc1nn(C(=O)c2ccccc2)c2c1C(=O)CC(C)(C)C2`, the AC50 under setting [1] is 8.2 µM [falling, partial curve, poor fit].

In the case of `O=C(COc1ccc(Cl)cc1Br)N1CCN(c2ncccn2)CC1`, the AC50 is, setting by setting: under setting [1], 29.1 µM [rising, single point]; under setting [2], 5.17 µM [falling, partial curve, poor fit].

Turning to `Cc1ccc(NC(=S)N(CCCN2CCCC(C)C2)Cc2ccco2)cc1C` (configuration not stated), under setting [1], the AC50 was 6.31 µM [rising, partial curve, poor fit].

For the compound `Cc1ccc(/C=N/NC(=O)c2ccco2)cc1`, the concentration at half-maximal activity (AC50) under setting [1] was 5.62 µM [falling, partial curve].

For `Cc1nc(Nc2ccc(Cl)c(Cl)c2)sc1C(=O)Nc1ccccc1`, under setting [1], the half-maximal activity concentration (AC50) was 16.4 µM [falling, partial curve].

With `COCCNC(=O)/C(C#N)=C/c1cccc(OCc2ccccc2)c1`, the half-maximal activity concentration (AC50) under setting [1] was 35.5 µM [falling, single point].

For the compound `COc1ccc(N(CC(=O)Nc2ccc3c(c2)OCCO3)S(C)(=O)=O)c(OC)c1`, the concentration at half-maximal activity (AC50) under setting [1] was 3.16 µM [rising, full curve, poor fit].

Take `O=C(Cc1nc2ccccc2[nH]1)c1cccc([N+](=O)[O-])c1`: the half-maximal activity concentration (AC50) under setting [1] is 10 µM [falling, partial curve].

For `COc1ccccc1C(=O)NCCn1cc(SCC(=O)Nc2nnc(C)s2)c2ccccc21`, the AC50 under setting [1] is 14.1 µM [falling, single point].

On to `COc1ccc(NC(=O)CSc2nnnn2C2CCCCC2)c(OC)c1`, for which, under setting [1], the AC50 is 0.1 µM [rising, full curve, poor fit].

On to `CCCC(=O)Nc1cc(S(=O)(=O)N(CC)CC)ccc1Cl`, for which the AC50 under setting [1] is 18.4 µM [rising, single point].

Regarding `COCCNC(=O)c1ccc2c(=O)n(CCOC)c(=O)[nH]c2c1`, the AC50 was 1.12 µM [falling, full curve, poor fit] under setting [1] and 11.2 µM [rising, partial curve, poor fit] under setting [2].

Consider `O=C(/C=C/c1ccc(Cl)cc1)Nc1nccs1`, for which the AC50 under setting [1] was 2.82 µM [falling, full curve, poor fit].

As to `COC(=O)c1ccccc1NC(=O)CCCN1C(=O)C(c2ccccc2)Oc2cccnc21` (configuration not stated), under setting [1], the AC50 is 1.78 µM [falling, full curve, poor fit].

Turning to `Cc1cc(C)n2nc(SCC(=O)c3ccccc3)nc2n1`, under setting [1], the AC50 is 18.4 µM [falling, partial curve].

In the case of `Cc1ccc(C(=O)OCC(=O)N2C(C)CCCC2C)cc1S(=O)(=O)N1CCOCC1` (configuration not stated), under setting [1], the AC50 is 16.4 µM [rising, single point].

For the compound `Cc1ccc(C2(C)NC(=O)N(CC(=O)Nc3ccccc3N3CCCC3)C2=O)cc1` (configuration not stated), the AC50 under setting [1] is 6.51 µM [falling, single point].

As for `Cc1ccc(NC(=O)c2ccccc2)cc1OC(=O)c1ccccc1`, the concentration at half-maximal activity (AC50) under setting [1] is 15.8 µM [falling, single point].

As for `c1ccc(-c2csc3ncnc(NCc4ccccn4)c23)cc1`, the half-maximal activity concentration (AC50) under setting [1] was 35.5 µM [falling, single point].

In the case of `C/C(=N\NC(=O)c1ccc(C)cc1C)c1ccc2c(c1)OCO2`, the AC50 under setting [1] was 29.1 µM [falling, single point].

`CCCn1nnc(NC(=O)c2ccc(Cl)cc2Cl)n1`: the AC50 under setting [1] was 10.3 µM [rising, partial curve, poor fit].

In the case of `NNC(=O)c1cc2ccccc2[nH]1`, the AC50 under setting [2] was 25.1 µM [falling, single point].

On to `CCOC(=O)C1=C(C)NC2=C(C(=O)CCC2)C1c1coc2ccccc2c1=O` (configuration not stated), for which the AC50 under setting [1] is 32.6 µM [rising, single point].

With `Cc1ccc(-n2c(C)nn(Cc3ccc([N+](=O)[O-])cc3)c2=O)cc1`, the AC50 under setting [1] is 0.562 µM [rising, full curve, poor fit].

On to `O=C(O)CCCCCNc1nc(=S)[nH]c2ccccc12`, for which the AC50 under setting [1] is 13 µM [falling, partial curve].

Turning to `CCCCc1ccc(-c2ccc(Br)cc2O)nc1`, the AC50 under setting [1] was 0.0411 µM [falling, full curve].

With `CCOC(=O)C1=C(O)/C(=C/c2ccc(-c3ccccc3C(=O)O)o2)SC1=Nc1ccc(C)cc1`, the AC50 under setting [1] is 12.6 µM [falling, partial curve, poor fit].

As to `COc1ccc(-c2cnnn2-c2ccc(N)cc2)cc1OC`, the AC50 runs as follows: under setting [1], 29.1 µM [rising, single point]; under setting [2], 18.4 µM [falling, partial curve, poor fit].

For `CCOC(=O)N1CCN(S(=O)(=O)c2ccc(C(=O)Nc3ccc(F)cc3F)cc2)CC1`, the AC50 under setting [1] is 35.5 µM [rising, single point] and the AC50 under setting [2] is 12.6 µM [falling, partial curve].
